From publication PMC10163288 come the findings set out here.

B1: il2ra_site2_2erj_normal_mot_90f6a21de4ed711cb697bb9f61d9c40c_0001_af2_000000135_0001_36_50_H_._HHH_b2_03327_0002_0000600026_0000001_0_af2pred_0001_af2pred (protein)
chain: SSSDREEVAKEVVERLVEELGLDEEAQRQLELSAELAIEAGASPEQIEQYLKLVAEYLLKQLSSS
B2: il2ra_site2_3nfp_normal_mot_HHH_b2_07498_000000293_0001_1_14_H_._HHH_b2_00131_af2_0001_0000100001_0000001_0 (protein)
chain: SSSSDEEEKLERLEERIKELEEKNDRFEALRLIAELTELAAKLNDEEVAELVLELYRELLSSSSS
B3: il2ra_site2_3nfp_normal_mot_b82ca2e1c409d160386ac3cc6d7ba40c_0001_000000212_0001_53_65_H_._3fb99943767767075383c8503bf007d5_0001_af2_0001_0000200020_0000001_0 (protein)
chain: DQEHEDAIKTAVESGNPNLLRLVEAALLALKLHGDPLFEELLELIEELVEEGNPIAEELLRRIEP
B4: il2ra_site1_3nfp_normal_mot_HHH_b1_08149_af2_000000062_0001_43_57_H_._97e99672e168623ff83a69b38e8865de_0001_1_0001_0000300024_0000001_0_af2pred_0001_af2pred_1 (protein)
chain: TAEELLEELVRIAVENNNPRLLRKILRALEAYLGDPEEAERKLEELIEKVLGDPEEAEELVRLAK
B5: il2ra_site1_1z92_sap_22_mot_HHH_b1_08467_af2_000000139_0001_42_58_H_._HHH_b2_01290_af2_0001_0000300012_0000001_0_0001_af2pred_0001_af2pred_1_swapped (protein)
chain: NLTAQDLEEAVEKNDEELLRKFIELLLRAAGDPHFVKRLLEALVKKLGLPPEVLERLRELLEELT
B6: il2ra_site1_2b5i_sap_16_mot_0d834090f7fba59af90d965c6e866d42_0001_1_000000125_0001_35_49_H_._HHH_b2_04217_af2_0001_0000100006_0000001_0_0001_af2pred_0001_af2pre … (protein)
chain: SSSSSNAERYLVRVIFELFHRLGLSVEQAKELARLAIELLERGVSEEEAEELLQELAKELSSSSS
B7: il2ra_site2_2erj_sap_21_mot_HHH_b1_00069_af2_000000103_0001_1_18_H_._HHH_b1_05528_af2_0001_0000500009_0000001_0_0001_af2pred_0001_af2pred (protein)
chain: SSSSDEIRRLYELAEELDKLLLEGDEEKVEELLEELEQLARETNTPSAEKVVRAIEKSLESSSSS
B8: il2ra_site2_3nfp_sap_24_mot_HHH_b1_00050_000000292_0001_22_38_H_._HHH_b1_02222_af2_0001_0000900024_0000001_1_0001 (protein)
chain: SSSSDDEKLERMVELAIRTAEKRGDEEVLEELRRLLEEAREEGDFRLLLEAYALIAEALQRSSSS
B9: il2ra_site2_3nfp_sap_16_mot_HHH_b1_05400_af2_000000127_0001_43_57_H_._5fa2c1a30f04debedfe40931e4d0b367_0001_0001_0000200007_0000001_1_0001 (protein)
chain: SSSSSKAERYVEVALKVAELALRDGDPEVARRIVELAEQAARSQNNEELEEEIEELQEKINSSSS
B10: il2ra_site2_2erj_normal_mot_HHH_b2_01204_af2_000000056_0001_19_34_H_._HHH_b2_01455_af2_0001_0000300029_0000001_0 (protein)
chain: SSSDLEEELEELVEKLVEELGLSELAKRYLQRVVEALLEAGVDEEHARKALEESARQIAEGSSSS
B11: il2ra_site2_2erj_sap_26_mot_ca9fcc9ace360711d783d1260e4fbff1_0001_1_af2_000000007_0001_15_32_H_._HHH_b2_06363_0001_0000100021_0000001_0_0001 (protein)
chain: SSSSSSNDESLRVWELLREFAHAKSEEEREELEREVRELVEELNDNLLARFVELALRLHSSSSSS
B12: il2ra_site2_3nfp_sap_24_mot_HHH_b2_00444_000000178_0001_41_57_H_._HHH_b2_06761_0001_0000200019_0000001_0_0001 (protein)
chain: SSSSSSEAEEYVRAALELLKRIKDEELFERHFELIELAIESQGDEELEELLREIEEKYRSSSSSS
B13: il2ra_site2_2erj_normal_mot_HHH_b2_06545_000000262_0001_21_37_H_._HHH_b1_02645_0001_0000200009_0000001_0 (protein)
chain: SSSSSEEEVEELIKEAEQLLEEGDPEKAEEVLSRAFELAYEVNDPELASRVIELMALIAKSSSSS
B14: il2ra_site2_2erj_sap_19_mot_HHH_b2_00505_000000221_0001_1_17_H_._HHH_b1_08169_0001_0000200013_0000001_1_0001 (protein)
chain: SSSSSEWLHRSYKLANELMHLLARGDEEEFERLVEEIEKFAEERDNKVLKEIVESLHRLFNSSSS
B15: il2ra_site2_3nfp_sap_17_mot_HHH_b1_04762_000000120_0001_42_54_H_._HHH_b1_06359_0001_0000300027_0000001_0_0001 (protein)
chain: SSSSDEEELERLLEEVEELIKQGNLEEAEQLIMRIAHIAWELGDHEVFARLTELLEEIIRLSSSS
B16: il2ra_site2_2erj_sap_33_mot_d513a5c7d2e7ced7c66e00d3c8df735a_0001_000000137_0001_35_49_H_._HHH_b1_03847_af2_0001_0000300017_0000001_0_0001 (protein)
chain: SSSSSDLHELYRLAVELMHALANGDEELFEELAEEVEKLARELNSENVEEFIERLQRKLHSSSSS
B17: il2ra_site2_3nfp_sap_15_mot_HHH_b1_04032_000000208_0001_43_56_H_._HHH_b2_02140_0001_0001900057_0000001_0_0001_af2pred_0001_af2pred (protein)
chain: TEEIERVVRSVLRYIPDPEEARELLKRLRELLKRDPKEALELALELAEELGDPYLRELLERLLEK
B18: il2ra_site2_3nfp_normal_mot_HHH_b1_00660_af2_000000090_0001_40_57_H_._HHH_b2_03957_0001_0000500035_0000001_0_af2pred_0001_1_af2pred_swapped (protein)
chain: SSSSDVEEQVRELLEEAEELLRRGNPEEAEEVLRRASDLAYEARDEELVHLILELLEKVEGSSSS

The other results are listed elsewhere or left out.

This test has as its target il2ra, P01589. Put plainly: yeast display titration.
For the molecule B1, the “apparent Kd” value was “inactive: no binding seen”.
For B2 the value was “inactive: no binding seen”; for B3, “inactive: no binding seen”; for B4, “inactive: no binding seen”.
The same measure for B5: “inactive: no binding seen”; for B6: “inactive: no binding seen”.
The same measure for B7: “inactive: no binding seen”.
For the molecule B8, the “apparent Kd” value is “inactive: no binding seen”.
For B9 the value was “inactive: no binding seen”; for B10, “inactive: no binding seen”; for B11, “inactive: no binding seen”.
For B12 the value was “inactive: no binding seen”; for B13, “inactive: no binding seen”.
For the molecule B14, the “apparent Kd” value is “inactive: no binding seen”.
The same measure for B15: “inactive: no binding seen”; for B16: “inactive: no binding seen”.
The same measure for B17: “inactive: no binding seen”.
For the molecule B18, the “apparent Kd” value is “inactive: no binding seen”.
